For at least one entry, the source does not settle the construct or the ends of the probe. A negative result means that nothing was seen under these conditions. At least one verdict rests on a figure or table, not on a statement of the authors. Where a protein sequence is shown, tags need not be part of it.

The series concerns the target T1, GST-PIF4 bHLH (Arabidopsis thaliana) (UniProt Q8W2F3).
T1 sequence (looked up, limits assumed): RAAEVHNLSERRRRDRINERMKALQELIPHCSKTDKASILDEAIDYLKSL
Kind of series: EMSA. Conditions: Chemiluminescent EMSA Kit (Beyotime), manufacturer's protocol; pH and temperature not stated; recombinant protein; protein details: N-terminal GST (pGEX); label: 5' biotin.

On to “GAGCCAAAAACTTTGAATGACCTCGGGATATCAAATAATCA (double strand) [ERF1 mutant probe]”, for which the binding result is listed as “no binding”.

The record behind these values is article PMC7570020, “The PIFs Redundantly Control Plant Defense Response against Botrytis cinerea in Arabidopsis”.
